This is one part of the list. Most entries show no effect beyond the scatter of the controls.

By UniProt entry, the sequences of proteins in these tests, tags left out. Where a name states a change or a piece, a line headed by the entry shows the natural chain unless it says otherwise.
UniProt Q06323: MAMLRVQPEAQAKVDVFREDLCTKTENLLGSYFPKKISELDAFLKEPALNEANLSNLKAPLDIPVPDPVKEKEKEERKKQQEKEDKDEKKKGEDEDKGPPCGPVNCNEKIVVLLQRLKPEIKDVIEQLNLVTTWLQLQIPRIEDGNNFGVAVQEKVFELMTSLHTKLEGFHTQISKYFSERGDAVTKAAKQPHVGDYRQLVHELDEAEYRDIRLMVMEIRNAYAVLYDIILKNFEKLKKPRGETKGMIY
UniProt Q05D32: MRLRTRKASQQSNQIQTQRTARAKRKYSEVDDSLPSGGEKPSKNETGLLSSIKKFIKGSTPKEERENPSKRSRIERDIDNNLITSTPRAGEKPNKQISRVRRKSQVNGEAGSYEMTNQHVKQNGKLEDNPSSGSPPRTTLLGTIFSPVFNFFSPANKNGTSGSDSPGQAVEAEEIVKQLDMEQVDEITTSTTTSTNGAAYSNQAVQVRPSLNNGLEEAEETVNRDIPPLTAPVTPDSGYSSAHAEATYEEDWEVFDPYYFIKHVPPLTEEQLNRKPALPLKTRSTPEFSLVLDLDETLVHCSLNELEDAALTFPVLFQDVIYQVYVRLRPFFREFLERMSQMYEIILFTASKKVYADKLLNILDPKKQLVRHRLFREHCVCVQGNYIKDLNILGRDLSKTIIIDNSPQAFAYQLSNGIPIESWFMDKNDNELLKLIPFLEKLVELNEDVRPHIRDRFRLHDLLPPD
UniProt Q03013: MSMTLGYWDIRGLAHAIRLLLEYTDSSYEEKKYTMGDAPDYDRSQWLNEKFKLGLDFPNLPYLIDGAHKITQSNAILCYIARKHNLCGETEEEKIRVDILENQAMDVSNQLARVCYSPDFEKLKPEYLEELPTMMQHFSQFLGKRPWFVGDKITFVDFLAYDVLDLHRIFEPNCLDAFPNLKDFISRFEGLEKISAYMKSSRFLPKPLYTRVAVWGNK
UniProt Q00535, whole entry, looked up: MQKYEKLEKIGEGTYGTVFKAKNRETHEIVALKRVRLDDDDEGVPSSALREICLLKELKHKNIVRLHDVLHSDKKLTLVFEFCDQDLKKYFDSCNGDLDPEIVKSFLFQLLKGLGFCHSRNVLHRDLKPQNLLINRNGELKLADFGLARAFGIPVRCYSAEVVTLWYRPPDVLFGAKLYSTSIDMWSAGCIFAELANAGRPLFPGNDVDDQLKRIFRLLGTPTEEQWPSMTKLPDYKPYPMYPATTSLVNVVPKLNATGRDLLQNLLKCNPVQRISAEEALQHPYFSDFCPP
UniProt Q09028, whole entry: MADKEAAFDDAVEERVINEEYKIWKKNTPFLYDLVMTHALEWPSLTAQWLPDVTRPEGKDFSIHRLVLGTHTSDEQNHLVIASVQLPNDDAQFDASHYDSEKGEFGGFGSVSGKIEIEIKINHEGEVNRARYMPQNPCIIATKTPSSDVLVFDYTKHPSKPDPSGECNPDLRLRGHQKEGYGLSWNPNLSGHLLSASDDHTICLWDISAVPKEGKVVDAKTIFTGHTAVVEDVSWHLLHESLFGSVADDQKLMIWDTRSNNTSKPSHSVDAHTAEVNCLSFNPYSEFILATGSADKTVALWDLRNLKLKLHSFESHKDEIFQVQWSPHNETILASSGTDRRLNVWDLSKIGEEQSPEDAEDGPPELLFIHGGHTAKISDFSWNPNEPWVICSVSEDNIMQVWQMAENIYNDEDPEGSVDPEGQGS
UniProt Q00613: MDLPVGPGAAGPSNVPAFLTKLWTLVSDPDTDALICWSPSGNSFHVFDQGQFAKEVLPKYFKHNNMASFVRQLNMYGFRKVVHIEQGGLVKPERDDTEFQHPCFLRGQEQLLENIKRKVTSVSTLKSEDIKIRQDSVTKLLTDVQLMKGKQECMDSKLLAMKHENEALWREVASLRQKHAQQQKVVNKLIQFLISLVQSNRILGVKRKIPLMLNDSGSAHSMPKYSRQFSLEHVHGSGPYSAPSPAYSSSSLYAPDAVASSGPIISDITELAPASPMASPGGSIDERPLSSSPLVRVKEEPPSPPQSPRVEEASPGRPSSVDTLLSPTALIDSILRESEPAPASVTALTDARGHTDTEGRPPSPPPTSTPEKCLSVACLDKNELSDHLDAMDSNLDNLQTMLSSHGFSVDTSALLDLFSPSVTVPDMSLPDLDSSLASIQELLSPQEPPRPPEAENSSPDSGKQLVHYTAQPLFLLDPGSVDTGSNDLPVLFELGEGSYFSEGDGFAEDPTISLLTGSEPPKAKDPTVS
UniProt Q05481: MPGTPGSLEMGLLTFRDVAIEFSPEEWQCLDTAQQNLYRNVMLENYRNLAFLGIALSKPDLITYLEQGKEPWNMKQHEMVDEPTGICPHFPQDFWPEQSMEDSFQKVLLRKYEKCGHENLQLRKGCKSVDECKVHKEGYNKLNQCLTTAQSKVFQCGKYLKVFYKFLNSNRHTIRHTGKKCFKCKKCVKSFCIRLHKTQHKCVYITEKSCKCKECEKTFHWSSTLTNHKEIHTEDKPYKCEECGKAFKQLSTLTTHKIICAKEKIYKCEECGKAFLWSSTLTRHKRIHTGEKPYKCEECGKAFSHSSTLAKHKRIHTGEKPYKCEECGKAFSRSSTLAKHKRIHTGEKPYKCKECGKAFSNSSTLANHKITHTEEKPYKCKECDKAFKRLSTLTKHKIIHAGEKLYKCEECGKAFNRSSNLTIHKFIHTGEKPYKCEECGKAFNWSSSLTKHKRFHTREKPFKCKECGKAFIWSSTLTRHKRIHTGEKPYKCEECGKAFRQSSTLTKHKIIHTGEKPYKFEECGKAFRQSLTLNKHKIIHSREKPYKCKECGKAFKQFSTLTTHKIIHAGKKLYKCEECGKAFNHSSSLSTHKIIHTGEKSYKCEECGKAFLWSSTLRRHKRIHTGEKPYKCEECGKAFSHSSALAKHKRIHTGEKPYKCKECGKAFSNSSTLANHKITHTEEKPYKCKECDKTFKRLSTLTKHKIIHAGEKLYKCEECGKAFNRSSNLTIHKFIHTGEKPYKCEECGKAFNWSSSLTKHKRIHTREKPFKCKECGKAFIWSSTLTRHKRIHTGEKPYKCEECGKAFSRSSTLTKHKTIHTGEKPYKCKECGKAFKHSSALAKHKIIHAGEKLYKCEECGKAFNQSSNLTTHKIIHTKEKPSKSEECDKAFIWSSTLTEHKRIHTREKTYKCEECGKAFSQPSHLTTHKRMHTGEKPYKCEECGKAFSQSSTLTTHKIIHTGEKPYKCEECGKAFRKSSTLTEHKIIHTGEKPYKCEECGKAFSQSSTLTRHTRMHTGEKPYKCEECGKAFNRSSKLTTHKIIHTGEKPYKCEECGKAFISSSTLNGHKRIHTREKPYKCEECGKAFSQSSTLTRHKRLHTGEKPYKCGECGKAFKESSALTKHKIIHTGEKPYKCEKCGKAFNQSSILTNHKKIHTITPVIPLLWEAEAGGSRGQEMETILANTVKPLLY
UniProt Q08881: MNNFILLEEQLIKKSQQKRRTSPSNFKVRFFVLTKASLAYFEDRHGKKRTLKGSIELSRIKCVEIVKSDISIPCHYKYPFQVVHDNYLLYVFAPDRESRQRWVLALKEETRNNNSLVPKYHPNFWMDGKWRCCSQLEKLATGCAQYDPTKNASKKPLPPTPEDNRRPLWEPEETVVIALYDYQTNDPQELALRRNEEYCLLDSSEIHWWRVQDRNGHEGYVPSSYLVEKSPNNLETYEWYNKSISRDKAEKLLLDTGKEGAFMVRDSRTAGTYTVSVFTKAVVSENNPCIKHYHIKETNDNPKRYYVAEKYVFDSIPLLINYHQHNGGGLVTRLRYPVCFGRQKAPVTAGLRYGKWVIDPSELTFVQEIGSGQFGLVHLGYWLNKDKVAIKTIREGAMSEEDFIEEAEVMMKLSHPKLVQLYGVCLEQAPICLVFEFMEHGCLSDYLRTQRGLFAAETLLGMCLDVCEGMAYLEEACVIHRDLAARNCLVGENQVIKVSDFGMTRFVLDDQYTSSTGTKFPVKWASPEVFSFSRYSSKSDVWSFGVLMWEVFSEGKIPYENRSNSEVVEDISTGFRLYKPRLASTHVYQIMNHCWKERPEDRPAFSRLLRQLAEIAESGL
UniProt Q12962, whole entry: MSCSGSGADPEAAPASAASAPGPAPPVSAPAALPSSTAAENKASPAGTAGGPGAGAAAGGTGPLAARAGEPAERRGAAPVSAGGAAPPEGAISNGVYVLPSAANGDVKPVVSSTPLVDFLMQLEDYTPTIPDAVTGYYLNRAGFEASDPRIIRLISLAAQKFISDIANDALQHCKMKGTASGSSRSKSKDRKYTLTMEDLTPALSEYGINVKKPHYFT
UniProt Q09013: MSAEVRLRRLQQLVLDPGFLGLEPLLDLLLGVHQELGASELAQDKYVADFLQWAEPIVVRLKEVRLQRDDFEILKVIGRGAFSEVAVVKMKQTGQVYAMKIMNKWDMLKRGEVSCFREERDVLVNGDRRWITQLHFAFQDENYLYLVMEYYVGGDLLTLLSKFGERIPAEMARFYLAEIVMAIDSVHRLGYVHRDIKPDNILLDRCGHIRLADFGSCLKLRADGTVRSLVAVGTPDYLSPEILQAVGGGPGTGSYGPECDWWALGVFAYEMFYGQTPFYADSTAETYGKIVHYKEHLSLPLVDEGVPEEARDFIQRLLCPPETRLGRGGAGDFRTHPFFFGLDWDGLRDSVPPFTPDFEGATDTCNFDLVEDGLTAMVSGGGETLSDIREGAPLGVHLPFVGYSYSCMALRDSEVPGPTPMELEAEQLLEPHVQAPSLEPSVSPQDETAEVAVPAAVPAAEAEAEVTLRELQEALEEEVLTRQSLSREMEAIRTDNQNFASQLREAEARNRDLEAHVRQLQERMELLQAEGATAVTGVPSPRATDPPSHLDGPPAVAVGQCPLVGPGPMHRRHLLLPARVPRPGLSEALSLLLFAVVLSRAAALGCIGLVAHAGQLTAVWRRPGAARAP
UniProt P99999: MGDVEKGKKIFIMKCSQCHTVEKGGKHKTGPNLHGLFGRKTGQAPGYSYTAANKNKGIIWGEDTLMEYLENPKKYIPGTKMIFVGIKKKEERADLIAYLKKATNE
UniProt Q12798: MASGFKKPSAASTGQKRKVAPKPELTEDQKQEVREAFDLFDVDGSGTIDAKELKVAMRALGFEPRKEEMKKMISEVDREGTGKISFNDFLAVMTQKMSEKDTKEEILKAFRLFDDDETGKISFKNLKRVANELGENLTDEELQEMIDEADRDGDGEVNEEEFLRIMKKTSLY
UniProt Q0VG06: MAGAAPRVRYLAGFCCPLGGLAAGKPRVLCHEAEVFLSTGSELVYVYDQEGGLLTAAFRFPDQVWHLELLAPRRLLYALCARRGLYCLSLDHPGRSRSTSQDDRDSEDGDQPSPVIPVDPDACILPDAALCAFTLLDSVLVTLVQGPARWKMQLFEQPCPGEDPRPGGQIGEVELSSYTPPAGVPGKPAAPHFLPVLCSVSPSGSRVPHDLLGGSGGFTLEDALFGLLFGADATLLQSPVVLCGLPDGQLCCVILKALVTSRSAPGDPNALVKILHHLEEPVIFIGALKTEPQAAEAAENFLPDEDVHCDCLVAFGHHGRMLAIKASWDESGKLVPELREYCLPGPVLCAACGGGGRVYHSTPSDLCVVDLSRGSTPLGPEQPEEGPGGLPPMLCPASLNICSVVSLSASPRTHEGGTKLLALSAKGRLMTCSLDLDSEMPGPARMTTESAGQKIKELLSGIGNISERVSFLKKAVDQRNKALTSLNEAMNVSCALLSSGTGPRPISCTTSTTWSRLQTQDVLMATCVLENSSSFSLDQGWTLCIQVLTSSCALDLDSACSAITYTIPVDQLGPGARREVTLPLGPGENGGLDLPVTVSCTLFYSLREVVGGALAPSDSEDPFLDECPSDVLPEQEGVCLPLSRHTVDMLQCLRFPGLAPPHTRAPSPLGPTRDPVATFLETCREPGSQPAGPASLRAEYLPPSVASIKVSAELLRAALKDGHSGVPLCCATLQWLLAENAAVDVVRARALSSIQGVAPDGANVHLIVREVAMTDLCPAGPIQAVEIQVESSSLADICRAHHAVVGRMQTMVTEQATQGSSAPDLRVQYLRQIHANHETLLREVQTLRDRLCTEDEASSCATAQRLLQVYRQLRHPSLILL
UniProt Q12933: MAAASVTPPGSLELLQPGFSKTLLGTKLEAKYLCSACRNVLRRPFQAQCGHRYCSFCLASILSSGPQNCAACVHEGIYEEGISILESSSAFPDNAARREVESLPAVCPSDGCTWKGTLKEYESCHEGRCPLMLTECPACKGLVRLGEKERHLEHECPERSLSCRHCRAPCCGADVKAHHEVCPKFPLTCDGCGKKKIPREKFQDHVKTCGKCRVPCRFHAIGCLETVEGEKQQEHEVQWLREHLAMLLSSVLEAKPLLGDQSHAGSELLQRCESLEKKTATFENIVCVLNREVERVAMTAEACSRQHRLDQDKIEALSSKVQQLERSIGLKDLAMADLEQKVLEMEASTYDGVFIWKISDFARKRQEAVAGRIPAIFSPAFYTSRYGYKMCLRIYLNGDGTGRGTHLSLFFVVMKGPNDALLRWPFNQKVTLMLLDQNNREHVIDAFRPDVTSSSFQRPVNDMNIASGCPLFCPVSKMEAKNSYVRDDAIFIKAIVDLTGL

Compound in the assay: Cc1nc(Nc2ncc(C(=O)Nc3c(C)cccc3Cl)s2)cc(N2CCN(CCO)CC2)n1 [dasatinib]
Briefly: log2 fold change of tryptic peptide abundance, ligand vs vehicle (limited proteolysis) (log2 ratio); higher = more trypsin-susceptible (destabilized). To be noted: ligand concentration: 5 uM; sample: K562 cleared lysate.
Take “ICA1 (peptide sequence: DLQASLQEPAK, peptide start residue: 437) (UniProt Q05084)”: the log2 fold change came to 0.312.
Consider “AP1B1 (peptide sequence: NINLIVQK, peptide start residue: 305) (UniProt Q10567)”, for which the log2 fold change was -0.186.
For “CRYZ (peptide sequence: EVNYIDKIK, peptide start residue: 202) (UniProt Q08257)”, the log2 fold change was -0.848.
The value for “PPP3CA (peptide sequence: ITSFEEAK, peptide start residue: 467) (UniProt Q08209)” was 0.0808.
In the case of “PSME1 (peptide sequence: KGEDEDKGPPCGPVNCNEK, peptide start residue: 91) (UniProt Q06323)” it was 0.343; in that of “SPTBN1 (peptide sequence: KHQILEQAVEDYAETVHQLSK, peptide start residue: 1633) (UniProt Q01082)”, 0.517; in that of “CTDSPL2 (peptide sequence: KYSEVDDSLPSGGEKPSK, peptide start residue: 26) (UniProt Q05D32)”, 0.327.
The value for “UniProt Q00537 (peptide sequence: RPHSVIGGSLGSFMAMPR, peptide start residue: 72)” was 0.398; that for “GSTM4 (peptide sequence: KYTMGDAPDYDR, peptide start residue: 32) (UniProt Q03013)” was -0.291; that for “CDK5 (peptide sequence: KYFDSCNGDLDPEIVK, peptide start residue: 89) (UniProt Q00535)” was 0.462.
Regarding “UniProt Q09028 (peptide sequence: EAAFDDAVEER, peptide start residue: 5)”, the log2 fold change was 0.0466.
The value for “TOP2B (peptide sequence: QTWMNNMMK, peptide start residue: 213) (UniProt Q02880)” was 0.637.
As to “HSF1 (peptide sequence: KIPLMLNDSGSAHSMPK, peptide start residue: 208) (UniProt Q00613)”, the log2 fold change was found to be 0.116.
In the case of “UniProt Q05481 (peptide sequence: CGHENLQLR, peptide start residue: 106)” it was 0.288; in that of “ZNF92 (peptide sequence: YGHENLQLR, peptide start residue: 106) (UniProt Q03936)”, 0.278.
In the case of “SLC25A3 (peptide sequence: GVAPLWMR, peptide start residue: 219) (UniProt Q00325)” it was 0.00236; in that of “ITK (peptide sequence: AEKLLLDTGK, peptide start residue: 249) (UniProt Q08881)”, 0.0663.
The value for “TAF10 (peptide sequence: ASPAGTAGGPGAGAAAGGTGPLAAR, peptide start residue: 43) (UniProt Q12962)” was 0.193; that for “DMPK (peptide sequence: DIKPDNILLDR, peptide start residue: 195) (UniProt Q09013)” was -0.897.
On to “CYCS (peptide sequence: ADLIAYLK, peptide start residue: 93) (UniProt P99999)”, for which the log2 fold change turned out to be 0.0137.
In the case of “UniProt Q12798 (peptide sequence: MSEKDTKEEILK, peptide start residue: 97)”, the log2 fold change was determined as 0.156.
In the case of “TRIM32 (peptide sequence: EAAEERR, peptide start residue: 140) (UniProt Q13049)” it was -0.16; in that of “HSPA14 (peptide sequence: CLVIEKNGK, peptide start residue: 89) (UniProt Q0VDF9)”, 0.172.
The value for “UniProt Q0VG06 (peptide sequence: DRLCTEDEASSCATAQR, peptide start residue: 849)” was 0.472.
Turning to “TRAF2 (peptide sequence: AHHEVCPK, peptide start residue: 177) (UniProt Q12933)”, the log2 fold change was -0.145.
The value for “UniProt Q00056 (peptide sequence: DHKLPNTK, peptide start residue: 220)” was -0.164.

Values taken from the supplement of paper PMC12819154, “High-throughput peptide-centric local stability assay extends protein–ligand identification to membrane proteins, tissues and bacteria” (Nature Structural & Molecular Biology, 2025).
